Reference: patent US9833437B2 (priority 2014, dated 2017)
Several values for one entry are separate records, joined by “and”; a condition that tells them apart may be missing. Identical values can stand only once. At least one compound was matched to its structure with a doubt left. Some entries share one result that the patent states for a list of compounds.

Tests used:
[1] = test system: MyD88-mediated NF-kB driven SEAP reporter response; format: cell-based, human
VEEV = format: cell-based, Venezuelan equine encephalitis virus
EEEV = format: cell-based, Eastern equine encephalitis virus

SMILES | IC50 [1] | reduction of VEEV replication (VEEV) | reduction of EEEV replication (EEEV)
CC(C)[C@H](NC(=O)CCc1ccccc1)C(=O)N1CCCC1 [Compound 1, Hydrocinnamoyl-L-valyl-pyrrolidine, reference compound] | 87 µM and 270 µM | – | –
CC(C)[C@@H](C(=O)N1CCCC1)N(CCCc1ccccc1)C(=O)[C@H]1CC[C@H](C(=O)N(CCCc2ccccc2)[C@H](C(=O)N2CCCC2)C(C)C)CC1 [Compound 4210] | – | 3-4 logs | 3-4 logs
